Results from PMC5362491.
No constants are given. Whether binding was seen depends on the method and setting. Binding seen in cells or lysates may run through a third protein. Some results given as binding are weak or reduced against the parent protein; the word gives no strength.

By UniProt entry, the sequences of proteins in these tests, tags left out.
UniProt P35222: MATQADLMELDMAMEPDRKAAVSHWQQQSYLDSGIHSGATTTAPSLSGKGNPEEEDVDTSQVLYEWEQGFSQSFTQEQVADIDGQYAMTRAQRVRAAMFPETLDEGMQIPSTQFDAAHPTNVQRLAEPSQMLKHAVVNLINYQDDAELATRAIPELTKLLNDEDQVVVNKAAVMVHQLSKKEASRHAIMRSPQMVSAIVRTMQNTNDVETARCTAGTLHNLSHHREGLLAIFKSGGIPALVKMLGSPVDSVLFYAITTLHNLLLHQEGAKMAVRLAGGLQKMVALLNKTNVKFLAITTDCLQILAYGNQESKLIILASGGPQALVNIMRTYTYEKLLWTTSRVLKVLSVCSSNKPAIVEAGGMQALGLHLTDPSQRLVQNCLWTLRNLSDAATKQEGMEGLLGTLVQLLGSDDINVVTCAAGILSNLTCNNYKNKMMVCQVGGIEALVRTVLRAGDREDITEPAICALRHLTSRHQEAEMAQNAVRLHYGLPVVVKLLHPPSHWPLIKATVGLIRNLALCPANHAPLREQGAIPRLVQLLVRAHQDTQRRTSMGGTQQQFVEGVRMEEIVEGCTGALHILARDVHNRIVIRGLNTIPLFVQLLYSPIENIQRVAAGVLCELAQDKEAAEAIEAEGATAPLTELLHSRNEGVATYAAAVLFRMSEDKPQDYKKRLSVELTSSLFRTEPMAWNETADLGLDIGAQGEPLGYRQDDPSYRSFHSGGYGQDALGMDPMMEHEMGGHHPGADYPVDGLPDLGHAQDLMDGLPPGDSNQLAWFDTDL
UniProt P24385: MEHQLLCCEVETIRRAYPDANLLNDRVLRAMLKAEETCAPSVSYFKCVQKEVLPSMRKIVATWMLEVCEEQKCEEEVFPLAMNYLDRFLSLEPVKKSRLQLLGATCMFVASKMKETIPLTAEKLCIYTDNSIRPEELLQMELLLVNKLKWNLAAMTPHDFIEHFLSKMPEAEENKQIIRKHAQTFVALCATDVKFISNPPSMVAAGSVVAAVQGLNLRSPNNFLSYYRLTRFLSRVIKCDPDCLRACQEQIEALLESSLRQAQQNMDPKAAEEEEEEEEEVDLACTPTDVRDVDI
UniProt P01106: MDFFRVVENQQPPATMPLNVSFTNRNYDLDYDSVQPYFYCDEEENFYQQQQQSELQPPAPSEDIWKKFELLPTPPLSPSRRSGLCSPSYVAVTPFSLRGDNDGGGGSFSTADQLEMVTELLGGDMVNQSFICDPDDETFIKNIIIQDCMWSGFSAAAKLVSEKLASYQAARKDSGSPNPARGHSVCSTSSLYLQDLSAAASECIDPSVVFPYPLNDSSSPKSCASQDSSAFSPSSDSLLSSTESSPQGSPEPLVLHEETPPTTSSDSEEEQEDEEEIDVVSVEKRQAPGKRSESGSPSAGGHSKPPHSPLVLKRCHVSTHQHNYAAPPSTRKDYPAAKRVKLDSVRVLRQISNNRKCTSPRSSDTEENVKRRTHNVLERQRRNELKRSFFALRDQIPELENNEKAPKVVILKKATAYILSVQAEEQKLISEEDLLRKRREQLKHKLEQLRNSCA

Target: β-catenin (human (endogenous in CNE2)) (UniProt P35222)
Assay: co-IP; reverse immunoprecipitation with anti-β-catenin antibody (2 μg, overnight, 4°C; protein A Mag Sepharose) from 500 μg protein of CNE2 cells; cells treated with 10 μM FM807 for 6 h; immunoblot

Substance | binding
Cyclin D1 (from UniProt P24385 1-295) | binds
c-Myc (from UniProt P01106 1-454) | binds
